Measured values from PMC7349614.
No constants are given. Whether binding was seen depends on the method and setting. Binding seen in cells or lysates may run through a third protein. Some entries that bind do so weakly or less than the wild type.

By UniProt entry, the sequences of proteins in these tests, tags left out. Residues count along the entry.
UniProt Q15465, residues 24-462: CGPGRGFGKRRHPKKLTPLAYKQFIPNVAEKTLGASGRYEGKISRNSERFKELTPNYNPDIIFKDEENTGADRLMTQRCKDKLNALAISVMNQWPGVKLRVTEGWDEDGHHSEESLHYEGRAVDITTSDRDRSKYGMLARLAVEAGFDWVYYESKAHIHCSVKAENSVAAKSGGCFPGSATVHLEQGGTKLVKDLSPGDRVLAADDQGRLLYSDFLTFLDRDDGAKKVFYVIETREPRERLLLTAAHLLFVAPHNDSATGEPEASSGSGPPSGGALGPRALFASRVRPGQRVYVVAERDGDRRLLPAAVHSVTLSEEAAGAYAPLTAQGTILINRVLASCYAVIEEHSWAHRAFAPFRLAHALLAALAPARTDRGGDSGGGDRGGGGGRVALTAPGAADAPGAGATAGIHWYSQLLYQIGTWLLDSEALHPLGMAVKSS
UniProt Q9Y3R4: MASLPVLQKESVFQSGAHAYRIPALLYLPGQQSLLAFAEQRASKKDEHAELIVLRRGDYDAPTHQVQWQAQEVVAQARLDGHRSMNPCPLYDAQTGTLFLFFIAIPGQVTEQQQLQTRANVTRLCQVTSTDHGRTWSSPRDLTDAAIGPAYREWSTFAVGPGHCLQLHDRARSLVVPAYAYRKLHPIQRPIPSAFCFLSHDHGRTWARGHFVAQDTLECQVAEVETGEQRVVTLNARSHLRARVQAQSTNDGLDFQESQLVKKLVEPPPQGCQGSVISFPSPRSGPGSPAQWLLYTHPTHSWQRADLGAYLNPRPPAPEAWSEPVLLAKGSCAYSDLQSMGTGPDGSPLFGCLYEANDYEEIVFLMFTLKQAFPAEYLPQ

Biological target: Sonic hedgehog (Shh), sialylated, endogenous in pancreatic cancer sphere-forming cells (human (endogenous in MIAPaCa2 and AsPC1)) (UniProt Q15465)
Test: co-IP; lysate (200 μg) of Neu2-overexpressed PCS (N-PCS; also Rictor + Neu2 co-overexpressed) from MIAPaCa2 and AsPC1; anti-Shh or anti-Patched1 antibody (1:100) overnight at 4 °C, protein A-Sepharose 4B 3 h, washed with PBS, blot with anti-Neu2, anti-Patched1 and anti-Shh

For “Neu2 (cytosolic sialidase), overexpressed from PcDNA3.1-Neu2 (from UniProt Q9Y3R4 1-380) (enzyme)”, the binding was “binds”.
